Reference: publication doi:10.1101/203539
No constants are given. Whether binding was seen depends on the method and setting. In cells and extracts the contact can be indirect. Here binding means that the protein was enriched with, or labelled near, the bait; the list need not be complete. A no says only that the protein was not detected with the bait. Sequences can lack the tags named with a protein.

Protein sequences, listed by entry. Tags and fused reporters are not part of them.
UniProt Q6PHQ9: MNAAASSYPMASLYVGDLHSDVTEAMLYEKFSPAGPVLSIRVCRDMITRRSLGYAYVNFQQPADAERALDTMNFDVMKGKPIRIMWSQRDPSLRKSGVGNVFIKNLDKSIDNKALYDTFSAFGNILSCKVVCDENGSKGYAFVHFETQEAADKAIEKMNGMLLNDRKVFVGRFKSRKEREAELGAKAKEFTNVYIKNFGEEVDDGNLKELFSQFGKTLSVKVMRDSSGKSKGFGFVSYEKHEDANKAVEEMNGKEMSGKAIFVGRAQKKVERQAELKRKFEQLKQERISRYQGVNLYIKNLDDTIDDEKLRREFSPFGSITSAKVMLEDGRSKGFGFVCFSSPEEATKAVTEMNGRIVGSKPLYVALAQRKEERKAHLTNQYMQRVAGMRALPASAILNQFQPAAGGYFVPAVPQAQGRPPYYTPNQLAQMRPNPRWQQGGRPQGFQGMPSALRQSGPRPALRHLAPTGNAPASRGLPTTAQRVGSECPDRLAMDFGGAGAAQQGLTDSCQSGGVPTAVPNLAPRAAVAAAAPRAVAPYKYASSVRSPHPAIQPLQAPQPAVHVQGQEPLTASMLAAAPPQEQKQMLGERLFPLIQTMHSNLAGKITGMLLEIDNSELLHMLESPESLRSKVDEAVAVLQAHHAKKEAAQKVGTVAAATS
UniProt Q8R151: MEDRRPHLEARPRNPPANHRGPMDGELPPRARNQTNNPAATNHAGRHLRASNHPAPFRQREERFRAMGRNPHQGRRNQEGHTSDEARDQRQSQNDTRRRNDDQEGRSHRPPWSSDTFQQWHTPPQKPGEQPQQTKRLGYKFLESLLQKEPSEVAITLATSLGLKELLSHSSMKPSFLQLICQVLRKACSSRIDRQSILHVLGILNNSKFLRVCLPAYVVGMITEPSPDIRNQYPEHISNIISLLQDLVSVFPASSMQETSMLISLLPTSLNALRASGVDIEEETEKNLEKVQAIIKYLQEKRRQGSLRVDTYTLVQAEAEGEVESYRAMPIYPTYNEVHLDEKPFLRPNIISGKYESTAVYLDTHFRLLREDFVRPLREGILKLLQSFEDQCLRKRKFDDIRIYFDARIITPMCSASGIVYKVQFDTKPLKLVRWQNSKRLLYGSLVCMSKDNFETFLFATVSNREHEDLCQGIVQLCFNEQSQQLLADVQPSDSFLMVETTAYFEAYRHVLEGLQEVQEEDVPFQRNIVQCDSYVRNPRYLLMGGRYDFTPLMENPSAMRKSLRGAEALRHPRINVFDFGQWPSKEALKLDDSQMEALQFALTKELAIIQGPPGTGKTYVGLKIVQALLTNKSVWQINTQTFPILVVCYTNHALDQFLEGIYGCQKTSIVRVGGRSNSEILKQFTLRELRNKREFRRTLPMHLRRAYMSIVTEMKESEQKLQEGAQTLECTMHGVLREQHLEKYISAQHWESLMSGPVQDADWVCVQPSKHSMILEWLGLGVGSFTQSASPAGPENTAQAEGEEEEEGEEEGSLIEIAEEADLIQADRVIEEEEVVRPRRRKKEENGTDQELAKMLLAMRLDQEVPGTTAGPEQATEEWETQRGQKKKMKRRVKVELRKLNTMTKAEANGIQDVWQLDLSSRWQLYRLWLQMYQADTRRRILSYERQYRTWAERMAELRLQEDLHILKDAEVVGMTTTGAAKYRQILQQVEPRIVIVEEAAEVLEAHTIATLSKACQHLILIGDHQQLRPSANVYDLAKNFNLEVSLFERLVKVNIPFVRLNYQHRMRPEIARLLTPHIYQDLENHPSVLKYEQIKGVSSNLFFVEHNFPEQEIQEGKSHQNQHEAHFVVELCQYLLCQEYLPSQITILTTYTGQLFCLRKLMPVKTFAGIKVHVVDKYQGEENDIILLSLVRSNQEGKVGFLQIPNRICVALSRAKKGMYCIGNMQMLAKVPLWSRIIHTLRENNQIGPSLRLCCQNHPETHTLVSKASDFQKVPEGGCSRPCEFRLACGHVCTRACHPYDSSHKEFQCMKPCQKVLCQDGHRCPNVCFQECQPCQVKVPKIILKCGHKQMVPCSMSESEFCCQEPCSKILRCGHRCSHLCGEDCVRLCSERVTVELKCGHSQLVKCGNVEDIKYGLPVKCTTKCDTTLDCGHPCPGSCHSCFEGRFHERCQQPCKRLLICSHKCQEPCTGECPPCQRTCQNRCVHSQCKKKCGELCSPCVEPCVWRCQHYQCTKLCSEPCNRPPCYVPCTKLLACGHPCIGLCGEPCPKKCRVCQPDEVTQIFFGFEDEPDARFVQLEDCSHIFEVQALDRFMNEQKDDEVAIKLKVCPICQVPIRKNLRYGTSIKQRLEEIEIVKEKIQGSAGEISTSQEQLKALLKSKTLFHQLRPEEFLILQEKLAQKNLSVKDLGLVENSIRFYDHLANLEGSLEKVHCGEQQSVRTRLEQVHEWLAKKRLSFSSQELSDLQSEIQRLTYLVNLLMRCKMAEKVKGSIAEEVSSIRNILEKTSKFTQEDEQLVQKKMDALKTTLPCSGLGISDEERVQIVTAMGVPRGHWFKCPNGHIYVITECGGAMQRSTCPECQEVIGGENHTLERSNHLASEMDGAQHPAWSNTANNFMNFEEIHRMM
UniProt Q9Z204: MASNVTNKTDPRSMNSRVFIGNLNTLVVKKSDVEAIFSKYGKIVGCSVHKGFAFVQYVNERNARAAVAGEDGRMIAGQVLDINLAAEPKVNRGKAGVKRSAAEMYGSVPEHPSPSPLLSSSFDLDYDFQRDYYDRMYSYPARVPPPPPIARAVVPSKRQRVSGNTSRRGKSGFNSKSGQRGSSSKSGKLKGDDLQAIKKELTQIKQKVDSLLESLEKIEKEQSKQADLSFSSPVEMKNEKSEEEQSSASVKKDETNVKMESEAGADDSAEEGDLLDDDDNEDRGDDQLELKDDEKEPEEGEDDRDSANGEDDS

These substances were tested against T1, biotagged Csde1 (cold shock domain protein e1) (UniProt Q91W50) (assay: affinity purification with mass spectrometry).
T1 sequence (chain, biotin on the biotag (biotin ligase BirA coexpressed)): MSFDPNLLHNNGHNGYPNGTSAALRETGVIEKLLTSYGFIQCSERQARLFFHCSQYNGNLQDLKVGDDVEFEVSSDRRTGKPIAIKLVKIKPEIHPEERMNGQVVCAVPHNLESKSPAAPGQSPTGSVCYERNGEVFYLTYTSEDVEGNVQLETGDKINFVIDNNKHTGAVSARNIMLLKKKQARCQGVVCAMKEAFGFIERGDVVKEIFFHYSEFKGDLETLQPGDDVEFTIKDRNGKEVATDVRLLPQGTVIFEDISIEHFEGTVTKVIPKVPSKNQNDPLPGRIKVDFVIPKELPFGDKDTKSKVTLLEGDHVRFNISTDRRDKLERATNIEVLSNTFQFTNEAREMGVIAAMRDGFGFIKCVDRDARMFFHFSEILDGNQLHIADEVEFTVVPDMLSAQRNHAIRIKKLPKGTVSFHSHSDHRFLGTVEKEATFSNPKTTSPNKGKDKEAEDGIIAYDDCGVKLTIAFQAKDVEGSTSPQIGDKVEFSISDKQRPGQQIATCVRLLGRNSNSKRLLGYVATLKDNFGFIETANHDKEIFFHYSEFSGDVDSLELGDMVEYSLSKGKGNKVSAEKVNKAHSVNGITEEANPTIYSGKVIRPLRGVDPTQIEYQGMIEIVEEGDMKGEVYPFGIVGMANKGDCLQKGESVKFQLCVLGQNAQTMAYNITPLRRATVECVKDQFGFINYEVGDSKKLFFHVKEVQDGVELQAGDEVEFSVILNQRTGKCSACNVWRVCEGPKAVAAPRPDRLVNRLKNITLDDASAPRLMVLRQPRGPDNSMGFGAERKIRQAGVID

Row | binding | Substance
1 | binds | Pabpc4 (from UniProt Q6PHQ9 1-660)
2 | binds | Znfx1 (Zinc finger NFx1-type containing 1) (from UniProt Q8R151 1-1909)
3 | no binding | hnRNP (heterogeneous nuclear binding protein) C1/C2 (from UniProt Q9Z204 1-313)
